The results in this text go back to US7528244.

Results are given in words; binding and its absence hold for the method and conditions named. Some binding calls cover weakened binding; strength is not graded here.

For the assay, the target named is T1, Fas, P25445.
T1 chain: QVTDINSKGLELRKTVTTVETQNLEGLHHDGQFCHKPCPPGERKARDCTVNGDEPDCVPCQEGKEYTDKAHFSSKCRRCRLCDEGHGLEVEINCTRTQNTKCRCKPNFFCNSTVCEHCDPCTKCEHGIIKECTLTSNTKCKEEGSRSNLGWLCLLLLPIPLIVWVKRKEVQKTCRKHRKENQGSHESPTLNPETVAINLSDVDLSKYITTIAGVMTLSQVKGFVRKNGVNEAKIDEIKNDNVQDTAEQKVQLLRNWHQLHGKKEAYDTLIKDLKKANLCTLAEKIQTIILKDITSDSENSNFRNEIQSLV
Nature of the assay: anti-Fas immunoprecipitation from 293 cells expressing Fas, FADD and Casper; three-protein complex. The settings on record: remark: other sources report otherwise.

B1: FADD, Q13158 1-208 (protein, UniProt Q13158 1-208, looked up)
chain: MDPFLVLLHSVSSSLSSSELTELKFLCLGRVGKRKLERVQSGLDLFSMLLEQNDLEPGHTELLRELLASLRRHDLLRRVDDFEAGAAAGAAPGEEDLCAAFNVICDNVGKDWRRLARQLKVSDTKIDSIEDRYPRNLTERVRESLRIWKNTEKENATVAHLVGALRSCQMNLVADLVQEVQQARDLQNRSGAMSPMSWNSDASTSEAS
On to B1, for which the binding entry is listed as “binds”.
